Measured values reported in PMC4534575, “The RNA Helicase DHX34 Activates NMD by Promoting a Transition from the Surveillance to the Decay-Inducing Complex” (Cell Reports, 2014).

Tests used:
FLAG-KAT8 = target: T1, FLAG-KAT8 (UniProt Q9H7Z6); assay: pull-down; FLAG-DHX34 (or FLAG-KAT8) on anti-FLAG beads, washed stringently, incubated with recombinant UPF1 in buffer D for 2 hr at 4°C; mixed in a 1:1 ratio; also with RNase A 80 μg/ml; both purified
T1 sequence: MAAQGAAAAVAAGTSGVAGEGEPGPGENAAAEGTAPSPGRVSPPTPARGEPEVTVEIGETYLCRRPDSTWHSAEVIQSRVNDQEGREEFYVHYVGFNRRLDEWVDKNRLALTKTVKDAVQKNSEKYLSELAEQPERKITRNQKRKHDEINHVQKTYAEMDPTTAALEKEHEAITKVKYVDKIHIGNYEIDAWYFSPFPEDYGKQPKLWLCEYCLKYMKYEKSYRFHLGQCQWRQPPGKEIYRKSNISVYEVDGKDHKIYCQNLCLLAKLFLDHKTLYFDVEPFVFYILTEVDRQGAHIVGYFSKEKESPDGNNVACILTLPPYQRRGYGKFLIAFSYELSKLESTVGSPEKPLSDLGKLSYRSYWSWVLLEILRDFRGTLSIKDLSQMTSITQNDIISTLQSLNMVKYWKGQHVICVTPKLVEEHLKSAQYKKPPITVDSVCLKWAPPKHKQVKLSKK

FLAG-DHX34 (human) = target: T2, FLAG-DHX34 (human) (UniProt Q14147); assay: as above
T2 sequence: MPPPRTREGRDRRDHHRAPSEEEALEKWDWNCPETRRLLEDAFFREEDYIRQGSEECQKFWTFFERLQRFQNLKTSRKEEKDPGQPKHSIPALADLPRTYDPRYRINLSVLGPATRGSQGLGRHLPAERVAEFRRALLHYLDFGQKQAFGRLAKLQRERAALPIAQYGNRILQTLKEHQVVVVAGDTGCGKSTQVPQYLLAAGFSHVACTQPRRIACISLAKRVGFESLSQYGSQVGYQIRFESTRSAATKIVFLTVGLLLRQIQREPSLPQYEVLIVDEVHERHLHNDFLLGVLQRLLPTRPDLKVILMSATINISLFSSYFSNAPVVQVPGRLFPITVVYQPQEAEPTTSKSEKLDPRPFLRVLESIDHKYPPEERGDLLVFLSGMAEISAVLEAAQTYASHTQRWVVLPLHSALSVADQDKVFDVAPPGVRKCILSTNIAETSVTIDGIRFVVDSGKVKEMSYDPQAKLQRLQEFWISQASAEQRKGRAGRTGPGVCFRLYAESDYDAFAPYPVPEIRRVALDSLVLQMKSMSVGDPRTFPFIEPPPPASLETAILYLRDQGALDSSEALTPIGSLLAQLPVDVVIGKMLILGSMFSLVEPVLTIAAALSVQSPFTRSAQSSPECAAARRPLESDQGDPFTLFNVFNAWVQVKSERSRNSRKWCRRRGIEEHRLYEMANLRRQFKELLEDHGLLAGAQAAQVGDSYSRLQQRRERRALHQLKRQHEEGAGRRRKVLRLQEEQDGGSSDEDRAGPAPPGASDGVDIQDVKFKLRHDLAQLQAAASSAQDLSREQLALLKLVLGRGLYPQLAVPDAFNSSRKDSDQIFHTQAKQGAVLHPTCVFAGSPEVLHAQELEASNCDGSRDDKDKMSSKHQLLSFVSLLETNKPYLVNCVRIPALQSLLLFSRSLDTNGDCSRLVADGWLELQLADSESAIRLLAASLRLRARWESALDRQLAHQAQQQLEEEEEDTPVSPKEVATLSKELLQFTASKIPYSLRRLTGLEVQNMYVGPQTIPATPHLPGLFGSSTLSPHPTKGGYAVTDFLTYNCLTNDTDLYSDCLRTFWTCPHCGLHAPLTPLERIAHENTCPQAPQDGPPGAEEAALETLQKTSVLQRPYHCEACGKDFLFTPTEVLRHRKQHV

T7-DHX34 (wild-type) = target: T3, T7-DHX34 (wild-type) (human, UniProt Q14147 1-1143); assay: pull-down; purified T7-DHX34 (wild-type or deletion constructs) on T7 agarose beads incubated with recombinant UPF1, UPF2, UPF3b or purified full-length FLAG-UPF1 in buffer D for 2 hr at 4°C; both purified
T3 construct: Human DHX34, wild type; also called T7-tagged DHX34; shRNA-resistant (R) wild-type T7-DHX34; source: HEK293T, transiently transfected, in lysate; also purified on T7 agarose beads
T3 sequence (looked up): T2 sequence

[1] = target: T4, FLAG-UPF1 (wild-type) (human) (UniProt Q92900); assay: co-IP; anti-FLAG IP of transiently transfected FLAG-UPF1 (wild-type or mutants) from HEK293T lysate; endogenous partners by western blot; in the absence or presence of RNase A (Figures 2B, S2B); cells also depleted of DHX34 by shRNA, rescued with T7-DHX34, or cotransfected with T7-DHX34
T4 sequence: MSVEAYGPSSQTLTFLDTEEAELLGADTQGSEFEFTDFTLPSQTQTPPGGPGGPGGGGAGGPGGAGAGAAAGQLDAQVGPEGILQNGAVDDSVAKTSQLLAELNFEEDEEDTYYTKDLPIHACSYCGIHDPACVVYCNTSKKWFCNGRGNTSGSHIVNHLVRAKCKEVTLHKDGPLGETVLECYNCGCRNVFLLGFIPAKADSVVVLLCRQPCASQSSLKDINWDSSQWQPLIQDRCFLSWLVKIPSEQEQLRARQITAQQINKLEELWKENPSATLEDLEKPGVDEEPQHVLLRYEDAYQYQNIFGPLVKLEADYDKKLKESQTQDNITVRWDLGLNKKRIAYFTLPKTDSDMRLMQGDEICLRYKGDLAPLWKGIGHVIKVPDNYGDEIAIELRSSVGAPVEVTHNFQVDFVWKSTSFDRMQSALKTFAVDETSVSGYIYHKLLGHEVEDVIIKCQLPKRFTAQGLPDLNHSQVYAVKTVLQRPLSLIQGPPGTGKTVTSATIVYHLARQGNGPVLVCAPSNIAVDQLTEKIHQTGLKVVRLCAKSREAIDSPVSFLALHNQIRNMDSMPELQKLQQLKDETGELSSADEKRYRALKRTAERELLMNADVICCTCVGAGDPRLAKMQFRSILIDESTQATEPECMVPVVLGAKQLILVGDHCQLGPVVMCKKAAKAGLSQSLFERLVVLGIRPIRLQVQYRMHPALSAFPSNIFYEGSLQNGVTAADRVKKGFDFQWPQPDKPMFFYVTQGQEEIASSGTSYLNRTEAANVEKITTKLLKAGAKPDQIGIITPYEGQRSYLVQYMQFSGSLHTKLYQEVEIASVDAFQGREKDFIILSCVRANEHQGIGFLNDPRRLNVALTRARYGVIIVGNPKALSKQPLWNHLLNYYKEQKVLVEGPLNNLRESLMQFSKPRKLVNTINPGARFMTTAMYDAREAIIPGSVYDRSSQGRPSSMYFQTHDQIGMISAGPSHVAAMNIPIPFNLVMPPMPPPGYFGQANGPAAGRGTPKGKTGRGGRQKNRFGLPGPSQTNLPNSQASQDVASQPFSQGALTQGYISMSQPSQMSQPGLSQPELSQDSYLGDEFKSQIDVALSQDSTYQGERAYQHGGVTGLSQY

FLAG-UPF1 ΔCH (human) = assay: co-IP; anti-FLAG IP from HEK293T cells cotransfected with FLAG-UPF1 (wild-type or mutants) and T7-DHX34 (wild-type or ATPase mutants); RNase A in Figure 3C; T7-DHX34 by western blot
FLAG-UPF1 ΔN (human) = assay: as above
FLAG-UPF1 ΔCT (human) = assay: as above
FLAG-eRF3 = assay: co-IP; anti-FLAG IP from HEK293T cells depleted of DHX34 by shRNA and cotransfected with FLAG-eRF1 or FLAG-eRF3 and shRNA-resistant T7-DHX34; lysis in 20 mM Tris-HCl (pH 7.2), 150 mM KCl, 10 mM MgCl2, 0.5% NP-40

B1: T7-DHX34 (wild-type) (protein, UniProt Q14147 1-1143)
chain: T2 sequence
binding (FLAG-UPF1 ΔCH (human)): binds
binding (FLAG-UPF1 ΔN (human)): binds
binding (FLAG-UPF1 ΔCT (human)): binds

B3: T7-DHX34 D279A (protein, UniProt Q14147 1-1143)
chain: T2 sequence with D279A
binding (FLAG-eRF3): binds

The remaining lines, values ahead:

binding (FLAG-KAT8): no binding
binding (FLAG-DHX34 (human)): binds
binding (T7-DHX34 (wild-type)): binds
Molecule: recombinant UPF1 (human)

binding [1]: binds
Molecule: eukaryotic release factor eRF3 (endogenous) (human (endogenous in HEK293T))

binding (FLAG-eRF3): binds
B2: T7-DHX34 K191S (protein, UniProt Q14147 1-1143)
chain: T2 sequence with K191S

Positions count from the first letter of the chain named. In names and notes the source's numbering stands. Results are given in words; binding and its absence hold for the method and conditions named. For part of these data: A result given as binding can be weak or reduced; the word gives no strength. For part of these data: Sequences can lack the tags named with a protein. For part of these data: In cells and extracts the contact can be indirect. One block for each molecule: values may come before it.
